Consider one sequence from article PMC11734750, “Using environment-sensitive tetramethylated thiophene-BODIPY fluorophores in DNA probes for studying effector-induced conformational changes of protein–DNA complexes” (RSC Chemical Biology, 2025).

For at least one entry, the source does not settle the construct or the ends of the probe.

The series relates to LutR-DBD (Bacillus subtilis). Briefly: EMSA. To be noted: dose-dependent shift; EMSA: 50 mM Tris-HCl, 0.1% Triton X-100, pH 7.6 buffer (2 of 6 ul) plus KCl (500 mM stock, 1 ul) and LutR storage buffer (250 mM NaCl, 20 mM Tris-HCl pH 7.5, 5 mM DTT); recombinant protein.

As for “GGTCATCAGATGACC (double strand) [15-bp LutR operator DNA]”, the binding result was “binds”.
